The text below walks through data of paper PMC3531308.

No constants are given. Whether binding was seen depends on the method and setting. In cells and extracts the contact can be indirect. Where a sequence is shown, tags or fusion partners need not be part of it.

The assay concerns the target APH-2ΔbZIP-His (HTLV-2). The experiment in a line: co-IP; 293T cells transiently co-transfected with two tagged proteins; nuclear (in places called cellular) extracts 48 h after transfection, 400 ug; IP with 5 ug anti-FLAG, anti-Myc or anti-6xHis overnight at 4°C, Protein A/G beads; washes with 120 mM and 400 mM NaCl, 0.5% NP-40; Western blot.

B1: FLAG-JunB (protein, UniProt P17275 1-347)
chain: MCTKMEQPFYHDDSYTATGYGRAPGGLSLHDYKLLKPSLAVNLADPYRSLKAPGARGPGPEGGGGGSYFSGQGSDTGASLKLASSELERLIVPNSNGVITTTPTPPGQYFYPRGGGSGGGAGGAGGGVTEEQEGFADGFVKALDDLHKMNHVTPPNVSLGATGGPPAGPGGVYAGPEPPPVYTNLSSYSPASASSGGAGAAVGTGSSYPTTTISYLPHAPPFAGGHPAQLGLGRGASTFKEEPQTVPEARSRDATPPVSPINMEDQERIKVERKRLRNRLAATKCRKRKLERIARLEDKVKTLKAENAGLSSTAGLLREQVAQLKQKVMTHVSNGCQLLLGVKGHAF
Regarding B1, the binding entry is on record as “no binding”.

B2: FLAG-JunD (protein, UniProt P17535 1-347)
chain: METPFYGDEALSGLGGGASGSGGSFASPGRLFPGAPPTAAAGSMMKKDALTLSLSEQVAAALKPAAAPPPTPLRADGAPSAAPPDGLLASPDLGLLKLASPELERLIIQSNGLVTTTPTSSQFLYPKVAASEEQEFAEGFVKALEDLHKQNQLGAGAAAAAAAAAAGGPSGTATGSAPPGELAPAAAAPEAPVYANLSSYAGGAGGAGGAATVAFAAEPVPFPPPPPPGALGPPRLAALKDEPQTVPDVPSFGESPPLSPIDMDTQERIKAERKRLRNRIAASKCRKRKLERISRLEEKVKTLKSQNTELASTASLLREQVAQLKQKVLSHVNSGCQLLPQHQVPAY
For the molecule B2, the binding entry is on record as “no binding”.
